Assay results published in PubChem BioAssay AID330 (DTP/NCI, 2004).
The list shows only some results of the screen, not a fair sample: it is rich in T/C values a quarter to a half above the control, in often repeated tests (any T/C) and in doses without a T/C. Further doses and runs are listed elsewhere. T/C: endpoint of the treated group in % of that of the vehicle group. Some doses have a count of surviving animals in place of a T/C: the source files T/C as zero there, which appears to mark a toxic dose or a test without result, not a measured value. Some doses without a T/C left all or most animals alive at the check, yet need not have been tolerated: the source hardly ever lists a survival T/C far under the control, and the zero likely stands for such cases as well. Survivors were counted at the toxicity check, usually on the fifth day, unless a day is given; later deaths do not show. Schedules are NCI's codes, read here as Q, the interval in days (D) or hours (H), X, the number of doses. Some entries hold several experiments; the values are given in rising order. Where survival is the endpoint, the PubChem record calls one and a half times the control and up active, and a quarter to a half above the control has no call in these data; cut-offs in other NCI protocols can differ.

Test system: P388 leukemia ip, CD2F1 mice, survival T/C
Assay: NCI In Vivo Anticancer Drug Screen. Data for tumor model P388 Leukemia (intraperitoneal) in CD2F1 (CDF1) mice
Settings: T/C endpoint: median survival time, higher T/C = longer survival
[1] = dose: 200.0 mg/kg/injection, schedule: Q01DX005 (ip), vehicle: saline
[2] = dose: 120.0 mg/kg/injection, schedule: Q01DX005 (ip), vehicle: saline with Tween-80
[3] = dose: 240.0 mg/kg/injection, schedule: Q01DX005 (ip), vehicle: saline with Tween-80
[4] = dose: 100.0 mg/kg/injection, schedule: Q01DX005 (ip), vehicle: saline with Tween-80
[5] = dose: 200.0 mg/kg/injection, schedule: Q01DX005 (ip), vehicle: saline with Tween-80
[6] = dose: 50.0 mg/kg/injection, schedule: Q01DX009 (ip), vehicle: saline
[7] = dose: 100.0 mg/kg/injection, schedule: Q01DX009 (ip), vehicle: saline with Tween-80
[8] = dose: 25.0 mg/kg/injection, schedule: Q01DX009 (ip), vehicle: saline with Tween-80
[9] = dose: 50.0 mg/kg/injection, schedule: Q01DX009 (ip), vehicle: saline with Tween-80
[10] = dose: 200.0 mg/kg/injection, schedule: Q01DX009 (ip), vehicle: saline with Tween-80
[11] = dose: 400.0 mg/kg/injection, schedule: Q04DX003 (ip), vehicle: saline with Tween-80
[12] = dose: 240.0 mg/kg/injection, schedule: Q01DX005 (ip), vehicle: saline

CC(Cl)CNCC(C)(C)C (configuration not stated)
survivor count [1]: 4 of 6

O=C1ON=C(COc2ccccc2)/C1=C\c1ccc(Cl)cc1
survivor count [2]: 3 of 6 | survivor count [3]: 0 of 6

CC1C2CCC(C2)C1CNCC1C2CCC(C2)C1C (configuration not stated)
survivor count [4]: 0 of 5 | survivor count [5]: 0 of 5

CN(CCNN1CCCC1)Cc1ccccc1Cl
survivor count [1]: 0 of 5

COc1ccc2c(c1)CCC1C2=CC(=O)/C1=C\[O-].COc1ccc2c(c1)CCC1C2=CC(=O)/C1=C\[O-].[Cu+2] (configuration not stated)
survivor count (dose: 100.0 mg/kg/injection, schedule: Q04DX003 (ip), vehicle: saline with Tween-80): 0 of 6 | survivor count (dose: 200.0 mg/kg/injection, schedule: Q04DX003 (ip), vehicle: saline with Tween-80): 4 of 6

C=C1C(=O)O[C@H]2[C@H]1[C@H](OC(=O)/C(C)=C\C)CC(=C)[C@@H]1[C@H](O)[C@H]3O[C@@]3(C)[C@@]12O
T/C [6]: 127 % of control

O=NN(CCCl)C(=O)Nc1ccc(CCO)cc1
T/C (dose: 0.33 mg/kg/injection, schedule: Q01DX009 (ip), vehicle: saline + alcohol): 145 % of control

O=C(Nc1ccccc1Cl)Oc1ccc(-c2ccccc2)cc1Br
T/C [7]: 129 and 133 % of control | survivor count (dose: 400.0 mg/kg/injection, schedule: Q01DX009 (ip), vehicle: saline with Tween-80): 3 of 6

Cc1cc2cc3c4c(nnc(NN)c4c2o1)-c1ccccc1CC3
survivor count (dose: 60.0 mg/kg/injection, schedule: Q01DX005 (ip), vehicle: saline with Tween-80): 3 of 6 | survivor count [2]: 3 of 6 | survivor count [3]: 0 of 6

OC1(c2cccc(Cl)c2)C2=NCCCN2c2ccccc21 (configuration not stated)
survivor count [8]: 5 of 6 | survivor count [9]: 0 of 6 and 3 of 6 | survivor count [7]: 0 of 6 | survivor count [10]: 0 of 6

OC1CCCSc2ccccc21 (configuration not stated)
T/C [7]: 144 % of control

CC(C)NC(=O)OCc1c(COC(=O)NC(C)C)c(-c2ccc(F)cc2F)n2c1CCC2
T/C (dose: 0.78 mg/kg/injection, schedule: Q01DX009 (ip), vehicle: distilled water + Tween-80): 135 % of control | T/C (dose: 1.56 mg/kg/injection, schedule: Q01DX009 (ip), vehicle: distilled water + Tween-80): 142 % of control | T/C (dose: 25.0 mg/kg/injection, schedule: Q01DX009 (ip), vehicle: distilled water + Tween-80): 129 % of control | survivor count (dose: 50.0 mg/kg/injection, schedule: Q01DX009 (ip), vehicle: distilled water + Tween-80): 4 of 6 and 6 of 6 | survivor count (dose: 100.0 mg/kg/injection, schedule: Q01DX009 (ip), vehicle: distilled water + Tween-80): 0 of 6 | survivor count (dose: 200.0 mg/kg/injection, schedule: Q01DX009 (ip), vehicle: distilled water + Tween-80): 0 of 6

C[C@@](O)(/C=C/[C@H]1CC=CC(=O)O1)[C@@H](C[C@@H](O)\C=C/C=C\C=C\CO)OP(=O)(O)O
T/C (dose: 3.12 mg/kg/injection, schedule: Q01DX005 (ip), vehicle: other): 140 % of control | T/C (dose: 6.25 mg/kg/injection, schedule: Q01DX005 (ip), vehicle: other): 142 and 143 % of control | survivor count (dose: 25.0 mg/kg/injection, schedule: Q01DX005 (ip), vehicle: other): 3 of 5 | survivor count (dose: 50.0 mg/kg/injection, schedule: Q01DX005 (ip), vehicle: other): 0 of 5 and 0 of 6

CCC(=O)NC(Cc1cccs1)C(=O)O (configuration not stated)
survivor count [6]: 6 of 6

OC(Nc1nccs1)C(F)(F)F (configuration not stated)
survivor count [7]: 1 of 6 | survivor count [10]: 0 of 6

CCN(CC)CCCC(CO)Nc1ccnc2cc(Cl)ccc12 (configuration not stated)
survivor count (dose: 200.0 mg/kg/injection, schedule: Q01DX009 (ip), vehicle: Klucel (hydroxypropylcellulose) (HPC)): 1 of 6 and 4 of 6

N[C@@]1(C(F)(F)F)N[C@](N)(C(F)(F)F)C(F)(F)C(F)(F)C1(F)F
survivor count (dose: 25.0 mg/kg/injection, schedule: Q01DX005 (ip), vehicle: Klucel (hydroxypropylcellulose) (HPC)): 4 of 5 | survivor count (dose: 50.0 mg/kg/injection, schedule: Q01DX005 (ip), vehicle: Klucel (hydroxypropylcellulose) (HPC)): 0 of 5 | survivor count (dose: 100.0 mg/kg/injection, schedule: Q01DX005 (ip), vehicle: Klucel (hydroxypropylcellulose) (HPC)): 0 of 5 | survivor count (dose: 200.0 mg/kg/injection, schedule: Q01DX005 (ip), vehicle: Klucel (hydroxypropylcellulose) (HPC)): 0 of 5

COc1cc(C[C@H]2c3cc(OC)c(OC)cc3CCN2C)c(Oc2cc3c(cc2OC)-c2c(OC)c(OC)cc4c2[C@H](C3)N(C)CC4)cc1OC
survivor count (dose: 160.0 mg/kg/injection, schedule: Q01DX009 (ip), vehicle: distilled water + Tween-80): 6 of 6 | survivor count (dose: 320.0 mg/kg/injection, schedule: Q01DX009 (ip), vehicle: distilled water + Tween-80): 0 of 6 | survivor count (dose: 400.0 mg/kg/injection, schedule: Q04DX003 (ip), vehicle: saline): 10 of 10

CCCCCCCCCCCCCCCCCCCCCC(=O)OC
survivor count [11]: 6 of 6

COc1cc(Br)c(C(=O)N(C)c2ccccc2)cc1OC
survivor count (dose: 100.0 mg/kg/injection, schedule: Q01DX009 (ip), vehicle: other): 3 of 6 | survivor count (dose: 200.0 mg/kg/injection, schedule: Q01DX009 (ip), vehicle: other): 0 of 6 | survivor count (dose: 400.0 mg/kg/injection, schedule: Q01DX009 (ip), vehicle: other): 0 of 6

Clc1cc(Cl)c(OCC#CI)c(Cl)c1Cl
survivor count [7]: 6 of 6 | survivor count [10]: 2 of 6 | survivor count [11]: 3 of 6

N#Cc1ccc(OC(=O)Nc2ccc(F)cc2)cc1
survivor count [3]: 4 of 6

CC(=O)CC(=O)c1ccccc1.CC(=O)CC(=O)c1ccccc1.[Ni]
survivor count [8]: 6 of 6 | survivor count [9]: 3 of 6 and 5 of 6 | survivor count [7]: 2 of 6 | survivor count [10]: 0 of 6

COc1cccc2c1C(=O)c1c(O)c3c(c(O)c1C2=O)CC(O)(C(=O)COC(C)=O)CC3OC1CC(NC(C)=O)C(O)C(C)O1 (configuration not stated)
T/C (dose: 1.56 mg/kg/injection, schedule: Q01DX009 (ip), vehicle: other): 127 % of control | T/C (dose: 6.25 mg/kg/injection, schedule: Q01DX009 (ip), vehicle: other): 129 % of control | T/C (dose: 12.5 mg/kg/injection, schedule: Q01DX009 (ip), vehicle: other): 131 % of control

CS(=O)(=O)OCCCCCCCCCCCN1CCOCC1
survivor count [5]: 2 of 6

CCCCNC(=O)OCCN(C)CCOC(=O)NCCCC
survivor count [12]: 0 of 6

COc1c2c(cc3c1C(O)N(C)CC3)OCO2 (configuration not stated)
survivor count (dose: 120.0 mg/kg/injection, schedule: Q01DX005 (ip), vehicle: saline): 1 of 6 and 3 of 6 | survivor count [12]: 0 of 6

Cc1cc(C)[n+](C)c2cc3ccccc3cc12
T/C (dose: 25.0 mg/kg/injection, schedule: Q01DX005 (ip), vehicle: saline with Tween-80): 125 % of control | survivor count [4]: 2 of 5
